This assay is described as follows: qHTS Assay for Lipid Storage Modulators in Drosophila S3 Cells.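 For cell number change: cells counted by Cell Tracker Red CMTPX staining in the red channel.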 As to conditions: BODIPY lipid droplet fluorescence, 18-24 h; for cell number change: measured here: cell count max response, cells fed with added oleic acid. In a few lines:
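Drosophila S3 cells got compounds at several concentrations plus oleic acid (400 uM solution). Laser-scanning cytometry with 488 nm excitation read lipid droplets at 500-530 nm and cells at 575-640 nm. Percent activity was relative to 20 uM Triacsin C.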
(Quantitative high-throughput screening tests each substance at several concentrations.)

Setting [1] is: measured here: lipid fluorescence (Fed channel) AC50, cells fed with added oleic acid.
Where [2] appears, read: measured here: cell number channel AC50, cells fed with added oleic acid.

This is an account of results in PubChem BioAssay AID2685 (National Center for Advancing Translational Sciences (NCATS), 2010).

This is one part of the list. These are further read-outs of the screen, such as a control signal, another cell line or another target. No call is given for them. Most of these compounds were active or inconclusive in the main read-out, so they are no random draw. Words in brackets tell the shape of the fitted curve; partial curves, single points and poor fits give uncertain potencies.

Take `Cc1ccc(C(=O)N(C)CC(=O)Nc2cccc(F)c2)cc1S(=O)(=O)N1CCCCC1`: the cell number change came to 11.5%. For the same molecule, the AC50 (in general, the midpoint of the concentration-response curve, whichever way the signal moves) under setting [1] is 20600 nM [rising, single point].

For `CCOc1ccc(NC(=O)c2cc(C3CC3)nc3c2cnn3C(C)C)cc1OC`, the cell number change is -0.791%. Regarding `Cc1ccc(NC(=O)Cn2nnc(C(=O)NCCc3ccccc3)c2N)cc1Cl`, the cell number change was determined as 7.25%. Also, under setting [1], the AC50 is 580 nM [falling, single point]. With `CCOc1ccccc1NC(=O)c1ccc(CN2CCc3ccccc3C2)cc1`, the cell number change was -19.8%. Under setting [2], the concentration at half-maximal activity (AC50) is 130 nM [falling, full curve, poor fit]. Regarding `O=C(CSc1nc2nn(-c3ccccc3)c(=O)c-2c2n1CCCCC2)NCCCc1ccccc1`, the AC50 is, setting by setting: under setting [2], 1300 nM [rising, partial curve]; under setting [1], 326 nM [rising, full curve]. Consider `CN(CC(=O)Nc1ccccc1Br)C(=O)CCC1CCCC1`, for which the cell number change stood at 3.78%. In the case of `Cc1ccc(-n2nc3c(=O)n(CCCC(=O)NCc4ccccc4F)nc(C)c3c2C)cc1`, the cell number change was 11.5%. Further, the AC50 under setting [1] was 130 nM [rising, full curve, poor fit].

Turning to `O=C(CSc1nc2ccncc2[nH]1)Nc1ccccc1C(F)(F)F`, the cell number change is -24.4%.

As to `O=C(COc1ccc(Br)cc1)N1CCN(c2ncccn2)CC1`, the cell number change is -0.111%. Moreover, the AC50 under setting [1] was 82 nM [falling, full curve, poor fit]. In the case of `Cc1ccc(Nc2ccc(C(=O)NCCc3ccccc3)cn2)cc1`, the cell number change is 8.64%. The concentration at half-maximal activity (AC50) under setting [1] is 5800 nM [rising, full curve, poor fit].

With `COc1cccc(C(=O)N2CCN(Cc3ccc(OC)cc3OC)CC2)c1`, the cell number change came to 13.8%. For the molecule `CN1CCN(C(=O)c2ccccc2NS(=O)(=O)c2ccc(F)cc2)CC1`, the cell number change is -5.94%. Moreover, under setting [1], the AC50 is 1840 nM [rising, single point].

Consider `c1coc(Cn2nnnc2CN2CCN(C3CCCC3)CC2)c1`, for which the cell number change is -16.6%. In addition, the AC50 under setting [1] was 25900 nM [falling, single point]. `COc1ccc(C(=O)/C=C/Nc2ccccn2)cc1`: the AC50 is 4110 nM [rising, partial curve, poor fit] under setting [2] and 4610 nM [rising, full curve, poor fit] under setting [1].

`CCOC(=O)c1ccc(NC(=O)Oc2ccccc2)cc1`: the cell number change is -8.71%. In addition, the AC50 under setting [1] was 32600 nM [falling, single point]. `Cc1nn(CC(=O)N(C)C)c(C)c1S(=O)(=O)N1CCOCC1`: the cell number change was -0.278%. In addition, the AC50 under setting [2] is 92 nM [rising, full curve, poor fit].

`c1ccc(-c2nccc(-c3ccc4c(c3)OCO4)n2)cc1`: the AC50 under setting [2] was 184 nM [rising, full curve, poor fit] and the AC50 under setting [1] is 291 nM [rising, partial curve, poor fit].
